Read-outs that look alike come from different tables or passages of the source. These are yes or no findings as the source states them, for the method shown. In cells and extracts the contact can be indirect. These calls come from enrichment with a bait or labelling near it, and not all partners need be listed. For part of these data: Tags and fused reporters may be left off the sequences shown. Blank lines part the entries; values can stand above or below the molecule they belong to.
What was measured:
Experiment in all cases: proximity labelling
[1] = biological target: HA-BirA*-TUBB4B (human (endogenous in HeLa)) (UniProt P68371)
[2] = biological target: TUBB4B-BirA*-HA (human (endogenous in HeLa)) (UniProt P68371)
[3] = biological target: HA-BirA*-TUBB4B (human (endogenous in HeLa)) (UniProt P68371); remark: listed apart in the source

Chains of the proteins cited; added tags and fusions are not shown.
UniProt P68371: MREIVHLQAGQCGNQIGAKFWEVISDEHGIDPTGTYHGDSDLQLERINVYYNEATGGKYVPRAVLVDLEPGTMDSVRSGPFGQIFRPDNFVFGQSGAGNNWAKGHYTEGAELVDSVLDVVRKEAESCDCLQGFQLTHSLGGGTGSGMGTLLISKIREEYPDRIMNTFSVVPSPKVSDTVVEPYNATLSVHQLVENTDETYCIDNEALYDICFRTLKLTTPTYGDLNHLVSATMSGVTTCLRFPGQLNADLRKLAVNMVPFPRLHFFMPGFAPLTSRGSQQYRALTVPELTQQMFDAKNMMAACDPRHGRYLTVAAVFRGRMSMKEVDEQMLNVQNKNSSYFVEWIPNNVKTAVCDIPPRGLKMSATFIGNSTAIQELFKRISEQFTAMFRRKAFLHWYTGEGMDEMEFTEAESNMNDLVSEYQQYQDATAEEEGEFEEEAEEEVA
UniProt Q1MSJ5: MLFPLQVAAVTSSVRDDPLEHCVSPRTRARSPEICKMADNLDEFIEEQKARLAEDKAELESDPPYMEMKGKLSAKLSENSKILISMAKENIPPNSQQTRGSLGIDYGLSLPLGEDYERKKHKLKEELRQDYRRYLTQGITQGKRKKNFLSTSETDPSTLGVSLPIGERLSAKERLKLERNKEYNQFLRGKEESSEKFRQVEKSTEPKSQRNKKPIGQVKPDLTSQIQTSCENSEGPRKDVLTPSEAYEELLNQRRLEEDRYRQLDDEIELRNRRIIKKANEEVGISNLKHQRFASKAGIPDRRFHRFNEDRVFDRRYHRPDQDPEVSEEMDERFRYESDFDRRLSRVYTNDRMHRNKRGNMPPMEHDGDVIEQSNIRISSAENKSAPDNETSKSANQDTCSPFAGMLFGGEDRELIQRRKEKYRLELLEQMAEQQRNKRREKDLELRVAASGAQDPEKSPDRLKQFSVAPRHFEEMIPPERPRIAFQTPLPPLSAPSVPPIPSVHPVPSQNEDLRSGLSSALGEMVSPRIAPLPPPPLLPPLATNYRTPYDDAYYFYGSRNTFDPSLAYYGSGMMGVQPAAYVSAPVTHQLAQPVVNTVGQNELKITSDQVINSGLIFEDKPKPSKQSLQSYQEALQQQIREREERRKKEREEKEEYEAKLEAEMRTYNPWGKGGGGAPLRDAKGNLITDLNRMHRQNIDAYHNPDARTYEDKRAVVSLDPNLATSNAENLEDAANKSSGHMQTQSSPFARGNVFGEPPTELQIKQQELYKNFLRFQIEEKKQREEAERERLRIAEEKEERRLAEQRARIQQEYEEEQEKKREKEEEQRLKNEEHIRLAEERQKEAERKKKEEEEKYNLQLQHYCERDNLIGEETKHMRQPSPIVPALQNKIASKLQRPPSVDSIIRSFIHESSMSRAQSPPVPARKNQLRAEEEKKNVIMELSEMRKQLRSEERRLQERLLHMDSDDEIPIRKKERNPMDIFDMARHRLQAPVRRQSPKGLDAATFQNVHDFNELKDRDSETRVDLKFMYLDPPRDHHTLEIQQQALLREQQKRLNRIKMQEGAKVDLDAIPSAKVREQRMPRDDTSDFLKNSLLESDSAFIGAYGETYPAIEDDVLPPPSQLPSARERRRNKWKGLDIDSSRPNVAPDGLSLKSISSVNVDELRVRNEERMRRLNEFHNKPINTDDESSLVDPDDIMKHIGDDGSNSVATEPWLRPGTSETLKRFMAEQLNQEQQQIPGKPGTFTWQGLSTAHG
UniProt Q14244: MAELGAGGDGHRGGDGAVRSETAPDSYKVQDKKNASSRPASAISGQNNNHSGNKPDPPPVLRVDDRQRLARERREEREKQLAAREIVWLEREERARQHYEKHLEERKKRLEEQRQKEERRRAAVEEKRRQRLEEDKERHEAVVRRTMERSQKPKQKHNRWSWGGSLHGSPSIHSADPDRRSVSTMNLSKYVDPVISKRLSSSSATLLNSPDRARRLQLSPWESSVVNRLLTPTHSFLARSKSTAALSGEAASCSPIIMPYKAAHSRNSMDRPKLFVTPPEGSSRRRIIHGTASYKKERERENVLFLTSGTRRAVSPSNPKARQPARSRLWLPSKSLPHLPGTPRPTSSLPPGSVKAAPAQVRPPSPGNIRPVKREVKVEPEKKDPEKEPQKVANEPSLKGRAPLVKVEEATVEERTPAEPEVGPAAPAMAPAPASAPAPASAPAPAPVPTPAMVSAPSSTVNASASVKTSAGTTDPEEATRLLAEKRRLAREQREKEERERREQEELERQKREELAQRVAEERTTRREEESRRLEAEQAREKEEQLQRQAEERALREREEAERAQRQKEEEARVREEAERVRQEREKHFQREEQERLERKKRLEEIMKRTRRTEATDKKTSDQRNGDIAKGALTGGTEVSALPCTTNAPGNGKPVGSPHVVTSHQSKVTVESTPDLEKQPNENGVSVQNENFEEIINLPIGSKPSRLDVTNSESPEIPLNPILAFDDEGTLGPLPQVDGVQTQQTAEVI
UniProt Q7Z460: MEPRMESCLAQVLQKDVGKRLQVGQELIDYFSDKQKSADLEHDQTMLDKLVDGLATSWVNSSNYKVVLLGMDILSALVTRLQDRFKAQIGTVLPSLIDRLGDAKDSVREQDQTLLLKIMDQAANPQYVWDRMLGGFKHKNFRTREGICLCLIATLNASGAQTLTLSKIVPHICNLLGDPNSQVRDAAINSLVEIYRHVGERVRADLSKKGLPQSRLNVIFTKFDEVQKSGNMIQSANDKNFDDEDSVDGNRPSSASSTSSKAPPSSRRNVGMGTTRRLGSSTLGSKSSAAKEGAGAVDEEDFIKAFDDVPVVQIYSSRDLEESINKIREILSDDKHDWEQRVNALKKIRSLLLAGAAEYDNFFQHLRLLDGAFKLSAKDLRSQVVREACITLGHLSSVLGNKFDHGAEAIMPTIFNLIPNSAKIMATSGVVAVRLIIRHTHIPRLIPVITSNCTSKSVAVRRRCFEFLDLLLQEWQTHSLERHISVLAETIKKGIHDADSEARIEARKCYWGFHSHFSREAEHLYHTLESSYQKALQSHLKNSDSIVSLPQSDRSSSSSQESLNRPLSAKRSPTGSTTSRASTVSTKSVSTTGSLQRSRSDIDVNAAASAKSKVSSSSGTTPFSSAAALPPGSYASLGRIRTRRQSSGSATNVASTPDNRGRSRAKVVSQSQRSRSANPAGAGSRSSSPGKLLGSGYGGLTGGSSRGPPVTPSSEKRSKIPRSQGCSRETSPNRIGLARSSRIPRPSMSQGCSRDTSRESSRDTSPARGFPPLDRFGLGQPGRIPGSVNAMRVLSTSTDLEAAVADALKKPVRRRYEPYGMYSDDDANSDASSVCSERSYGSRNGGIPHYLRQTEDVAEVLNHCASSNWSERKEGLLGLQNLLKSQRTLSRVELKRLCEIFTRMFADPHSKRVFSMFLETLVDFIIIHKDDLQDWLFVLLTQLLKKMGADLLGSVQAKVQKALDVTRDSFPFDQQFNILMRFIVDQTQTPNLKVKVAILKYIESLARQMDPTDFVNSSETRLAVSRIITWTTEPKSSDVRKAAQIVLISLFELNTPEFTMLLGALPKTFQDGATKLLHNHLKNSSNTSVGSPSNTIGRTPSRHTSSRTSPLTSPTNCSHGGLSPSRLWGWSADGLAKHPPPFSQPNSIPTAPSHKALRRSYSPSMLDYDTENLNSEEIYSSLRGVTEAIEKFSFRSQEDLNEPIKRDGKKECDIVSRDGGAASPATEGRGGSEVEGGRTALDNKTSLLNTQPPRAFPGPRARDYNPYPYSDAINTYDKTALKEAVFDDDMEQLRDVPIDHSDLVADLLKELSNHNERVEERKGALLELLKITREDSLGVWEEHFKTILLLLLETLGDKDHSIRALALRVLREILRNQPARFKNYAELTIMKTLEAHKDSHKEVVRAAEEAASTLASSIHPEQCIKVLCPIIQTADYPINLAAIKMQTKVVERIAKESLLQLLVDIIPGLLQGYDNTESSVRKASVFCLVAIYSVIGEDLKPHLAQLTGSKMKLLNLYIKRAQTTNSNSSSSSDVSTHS
UniProt P27816: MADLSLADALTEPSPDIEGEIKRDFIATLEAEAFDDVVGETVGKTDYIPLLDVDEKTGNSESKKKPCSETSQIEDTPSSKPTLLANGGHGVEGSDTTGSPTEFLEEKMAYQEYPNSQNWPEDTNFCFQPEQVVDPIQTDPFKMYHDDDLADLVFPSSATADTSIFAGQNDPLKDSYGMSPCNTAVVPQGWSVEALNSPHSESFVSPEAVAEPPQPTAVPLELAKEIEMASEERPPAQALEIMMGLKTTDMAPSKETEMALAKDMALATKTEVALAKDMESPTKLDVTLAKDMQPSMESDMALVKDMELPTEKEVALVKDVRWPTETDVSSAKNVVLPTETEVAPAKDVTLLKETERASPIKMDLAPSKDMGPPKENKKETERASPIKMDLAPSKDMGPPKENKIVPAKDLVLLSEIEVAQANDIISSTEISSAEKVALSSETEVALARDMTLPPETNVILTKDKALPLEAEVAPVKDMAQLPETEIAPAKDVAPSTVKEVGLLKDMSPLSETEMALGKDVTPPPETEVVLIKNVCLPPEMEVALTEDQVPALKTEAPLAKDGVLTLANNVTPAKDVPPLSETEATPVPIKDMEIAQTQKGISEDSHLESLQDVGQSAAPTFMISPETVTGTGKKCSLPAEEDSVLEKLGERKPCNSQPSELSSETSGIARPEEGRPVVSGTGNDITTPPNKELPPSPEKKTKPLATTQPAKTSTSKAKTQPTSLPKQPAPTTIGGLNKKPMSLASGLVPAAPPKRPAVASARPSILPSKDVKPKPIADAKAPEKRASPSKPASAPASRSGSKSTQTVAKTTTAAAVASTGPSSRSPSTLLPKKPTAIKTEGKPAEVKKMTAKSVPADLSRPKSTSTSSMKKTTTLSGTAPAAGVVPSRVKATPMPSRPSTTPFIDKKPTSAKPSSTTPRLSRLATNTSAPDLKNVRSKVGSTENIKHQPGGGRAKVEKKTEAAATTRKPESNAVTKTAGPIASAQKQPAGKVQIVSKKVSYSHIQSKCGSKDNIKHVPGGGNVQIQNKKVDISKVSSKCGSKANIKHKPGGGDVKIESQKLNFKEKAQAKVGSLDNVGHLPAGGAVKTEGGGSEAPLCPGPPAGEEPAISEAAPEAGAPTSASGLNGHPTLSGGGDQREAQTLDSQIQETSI

binding [1]: binds
Molecule: CSPP1 (endogenous) (from UniProt Q1MSJ5 1-1256)

binding [1]: binds
Molecule: Flag-mEGFP-MAP6 (from UniProt Q96JE9-1 1-813)

binding [1]: binds
Molecule: MEC17-Flag (from UniProt Q5SQI0-1 1-421) (enzyme)

binding [2]: binds
Molecule: MAP7 (from UniProt Q14244 1-749)

binding [2]: binds
Molecule: CLASP1 (from UniProt Q7Z460 1-1538)

binding [2]: binds
Molecule: MAP4 (from UniProt P27816 1-1152)

binding [3]: binds
B1: JPT1 (endogenous) (protein, UniProt Q9UK76 1-154)
chain: MTTTTTFKGVDPNSRNSSRVLRPPGGGSNFSLGFDEPTEQPVRKNKMASNIFGTPEENQASWAKSAGAKSSGGREDLESSGLQRRNSSEASSGDFLDLKGEGDIHENVDTDLPGSLGQSEEKPVPAAPVPSPVAPAPVPSRRNPPGGKSSLVLG

binding [3]: binds
B2: Flag-copGFP-JPT1 (protein, UniProt Q9UK76-1 1-154)
chain: B1 chain

binding [3]: binds
B3: Flag-mEGFP-JPT2 (protein, UniProt Q9H910-1 1-190)
chain: MFQVPDSEGGRAGSRAMKPPGGESSNLFGSPEEATPSSRPNRMASNIFGPTEEPQNIPKRTNPPGGKGSGIFDESTPVQTRQHLNPPGGKTSDIFGSPVTATSRLAHPNKPKDHVFLCEGEEPKSDLKAARSIPAGAEPGEKGSARKAGPAKEQEPMPTVDSHEPRLGPRPRSHNKVLNPPGGKSSISFY

binding [3]: binds
B4: Jupiter microtubule-associated homolog 2 (JPT2), endogenous (protein, UniProt Q9H910 1-190)
chain: B3 chain

binding [3]: binds
B5: Flag-copGFP-JPT2 (protein, UniProt Q9H910-1 1-190)
chain: B3 chain

binding [3]: binds
Molecule: LNPPGGKSSISFY (domain or fragment) [Flag-copGFP-JPT2 (178-190 a.a.)]
